PubChem BioAssay AID1224830, NIAID – 2016
The deposit covers about 18,000 reagents; below is a random part of them. About 2,900 of them (16%) were called active. 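Calls are made per well; low scores hint the gene aids the LPS response, high scores that it dampens it.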 Repeated entries: four replicate wells of each siRNA pool. Reagent sequences are not shown.

Screen: 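Genes whose knock-down alters the TNF-alpha reporter response to LPS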 (primary screen)
Cell system: human THP-1 monocytic leukaemia cells, TNF dual-luciferase reporter clone, PMA-differentiated to macrophage-like cells
Reagents: siRNA pool against human genes, 50 nM
Timing: LPS for 4 h, given about 3 days after siRNA transfection
Challenge: bacterial LPS (TLR4 ligand), 10 ng/ml
Measurement: 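Ratio of firefly to renilla light, scaled to the plate median and expressed as a robust z-score per replicate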
Scale: TNF reporter robust z-score: higher = stronger TNF reporter response to LPS
Call rule: 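a well is active when its z-score exceeds 2.8 or falls below -1.5; control wells carry no call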

gene,PubChem SID,TNF reporter robust z-score,call
MRPL51 (mitochondrial ribosomal protein L51),SID315456589,0.81,inactive
MRPL51 (mitochondrial ribosomal protein L51),SID315456589,-0.1,inactive
MRPL51 (mitochondrial ribosomal protein L51),SID315456589,0.15,inactive
MRPL51 (mitochondrial ribosomal protein L51),SID315456589,0.27,inactive
FAM53A (family with sequence similarity 53 member A),SID315462547,-1.48,inactive
FAM53A (family with sequence similarity 53 member A),SID315462547,-0.98,inactive
FAM53A (family with sequence similarity 53 member A),SID315462547,-1.15,inactive
FAM53A (family with sequence similarity 53 member A),SID315462547,-0.45,inactive
GIPC3 (GIPC PDZ domain containing family member 3),SID315461703,-1.03,inactive
GIPC3 (GIPC PDZ domain containing family member 3),SID315461703,0.84,inactive
GIPC3 (GIPC PDZ domain containing family member 3),SID315461703,-0.81,inactive
GIPC3 (GIPC PDZ domain containing family member 3),SID315461703,-0.15,inactive
STEAP3 (STEAP3 metalloreductase),SID315457526,0.04,inactive
STEAP3 (STEAP3 metalloreductase),SID315457526,-0.3,inactive
STEAP3 (STEAP3 metalloreductase),SID315457526,0.66,inactive
STEAP3 (STEAP3 metalloreductase),SID315457526,0.26,inactive
SSNA1 (SS nuclear autoantigen 1),SID315452704,1.77,inactive
SSNA1 (SS nuclear autoantigen 1),SID315452704,0.42,inactive
SSNA1 (SS nuclear autoantigen 1),SID315452704,0.49,inactive
SSNA1 (SS nuclear autoantigen 1),SID315452704,0.7,inactive
SLC6A11,SID315451476,-0.53,inactive
SLC6A11,SID315451476,13.7,active
SLC6A11,SID315451476,-0.06,inactive
SLC6A11,SID315451476,1.22,inactive
AIFM3 (AIF family member 3),SID315462440,1.44,inactive
AIFM3 (AIF family member 3),SID315462440,1.87,inactive
AIFM3 (AIF family member 3),SID315462440,1.64,inactive
AIFM3 (AIF family member 3),SID315462440,1.78,inactive
TCEA2 (transcription elongation factor A2),SID315451777,0.32,inactive
TCEA2 (transcription elongation factor A2),SID315451777,-0.24,inactive
TCEA2 (transcription elongation factor A2),SID315451777,-0.82,inactive
TCEA2 (transcription elongation factor A2),SID315451777,0.08,inactive
KANSL1 (KAT8 regulatory NSL complex subunit 1),SID315463729,0.34,inactive
KANSL1 (KAT8 regulatory NSL complex subunit 1),SID315463729,-0.88,inactive
KANSL1 (KAT8 regulatory NSL complex subunit 1),SID315463729,-0.46,inactive
KANSL1 (KAT8 regulatory NSL complex subunit 1),SID315463729,-0.87,inactive
PSD3 (pleckstrin and Sec7 domain containing 3),SID315455186,0.59,inactive
PSD3 (pleckstrin and Sec7 domain containing 3),SID315455186,2.08,inactive
PSD3 (pleckstrin and Sec7 domain containing 3),SID315455186,0.17,inactive
PSD3 (pleckstrin and Sec7 domain containing 3),SID315455186,0.75,inactive
KANK3 (KN motif and ankyrin repeat domains 3),SID315463540,-0.11,inactive
KANK3 (KN motif and ankyrin repeat domains 3),SID315463540,0.01,inactive
KANK3 (KN motif and ankyrin repeat domains 3),SID315463540,0.54,inactive
KANK3 (KN motif and ankyrin repeat domains 3),SID315463540,-0.49,inactive
KLK10 (kallikrein related peptidase 10),SID315450867,0.49,inactive
KLK10 (kallikrein related peptidase 10),SID315450867,1.31,inactive
KLK10 (kallikrein related peptidase 10),SID315450867,-0.18,inactive
KLK10 (kallikrein related peptidase 10),SID315450867,0.12,inactive

13 successive records from above, quoted:
gene,PubChem SID,TNF reporter robust z-score,call
GIPC3 (GIPC PDZ domain containing family member 3),SID315461703,-1.03,inactive
GIPC3 (GIPC PDZ domain containing family member 3),SID315461703,0.84,inactive
GIPC3 (GIPC PDZ domain containing family member 3),SID315461703,-0.81,inactive
GIPC3 (GIPC PDZ domain containing family member 3),SID315461703,-0.15,inactive
STEAP3 (STEAP3 metalloreductase),SID315457526,0.04,inactive
STEAP3 (STEAP3 metalloreductase),SID315457526,-0.3,inactive
STEAP3 (STEAP3 metalloreductase),SID315457526,0.66,inactive
STEAP3 (STEAP3 metalloreductase),SID315457526,0.26,inactive
SSNA1 (SS nuclear autoantigen 1),SID315452704,1.77,inactive
SSNA1 (SS nuclear autoantigen 1),SID315452704,0.42,inactive
SSNA1 (SS nuclear autoantigen 1),SID315452704,0.49,inactive
SSNA1 (SS nuclear autoantigen 1),SID315452704,0.7,inactive
SLC6A11,SID315451476,-0.53,inactive

The list goes on:
gene,PubChem SID,TNF reporter robust z-score,call
HEXB (hexosaminidase subunit beta),SID315449179,-0.56,inactive
HEXB (hexosaminidase subunit beta),SID315449179,-1.19,inactive
HEXB (hexosaminidase subunit beta),SID315449179,-0.53,inactive
HEXB (hexosaminidase subunit beta),SID315449179,-0.33,inactive
MVB12B (multivesicular body subunit 12B),SID315460747,-0.82,inactive
MVB12B (multivesicular body subunit 12B),SID315460747,-1.25,inactive
MVB12B (multivesicular body subunit 12B),SID315460747,-1.03,inactive
MVB12B (multivesicular body subunit 12B),SID315460747,-1.17,inactive
SHFL (shiftless antiviral inhibitor of ribosomal frameshifting),SID315457608,-1.8,active
SHFL (shiftless antiviral inhibitor of ribosomal frameshifting),SID315457608,-1.5,inactive
SHFL (shiftless antiviral inhibitor of ribosomal frameshifting),SID315457608,-1.6,active
SHFL (shiftless antiviral inhibitor of ribosomal frameshifting),SID315457608,-1.35,inactive
OLIG1 (oligodendrocyte transcription factor 1),SID315461377,0.61,inactive
OLIG1 (oligodendrocyte transcription factor 1),SID315461377,0.65,inactive
OLIG1 (oligodendrocyte transcription factor 1),SID315461377,1.2,inactive
OLIG1 (oligodendrocyte transcription factor 1),SID315461377,6.56,active
FGF3 (fibroblast growth factor 3),SID315448674,0.21,inactive
FGF3 (fibroblast growth factor 3),SID315448674,0.19,inactive
FGF3 (fibroblast growth factor 3),SID315448674,0.12,inactive
FGF3 (fibroblast growth factor 3),SID315448674,0.02,inactive
C2CD4B (C2 calcium dependent domain containing 4B),SID315464468,-0.77,inactive
C2CD4B (C2 calcium dependent domain containing 4B),SID315464468,-0.5,inactive
C2CD4B (C2 calcium dependent domain containing 4B),SID315464468,-0.95,inactive
C2CD4B (C2 calcium dependent domain containing 4B),SID315464468,0.17,inactive
PPAT (phosphoribosyl pyrophosphate amidotransferase),SID315450725,1.24,inactive
PPAT (phosphoribosyl pyrophosphate amidotransferase),SID315450725,0.63,inactive
PPAT (phosphoribosyl pyrophosphate amidotransferase),SID315450725,0.67,inactive
PPAT (phosphoribosyl pyrophosphate amidotransferase),SID315450725,1.02,inactive
S100A14 (S100 calcium binding protein A14),SID315458366,-1.04,inactive
S100A14 (S100 calcium binding protein A14),SID315458366,-0.11,inactive
S100A14 (S100 calcium binding protein A14),SID315458366,-0.59,inactive
S100A14 (S100 calcium binding protein A14),SID315458366,-0.25,inactive
FBXL8 (F-box and leucine rich repeat protein 8),SID315457607,2.43,inactive
FBXL8 (F-box and leucine rich repeat protein 8),SID315457607,1.45,inactive
FBXL8 (F-box and leucine rich repeat protein 8),SID315457607,1.29,inactive
FBXL8 (F-box and leucine rich repeat protein 8),SID315457607,1.07,inactive
GNA11 (G protein subunit alpha 11),SID315448936,-1.11,inactive
GNA11 (G protein subunit alpha 11),SID315448936,-0.72,inactive
GNA11 (G protein subunit alpha 11),SID315448936,-1.41,inactive
GNA11 (G protein subunit alpha 11),SID315448936,-0.58,inactive
SP1 (Sp1 transcription factor),SID315451589,-1.95,active
SP1 (Sp1 transcription factor),SID315451589,-1.92,active
SP1 (Sp1 transcription factor),SID315451589,-1.94,active
SP1 (Sp1 transcription factor),SID315451589,-1.39,inactive
RNF213 (ring finger protein 213),SID315458539,-0.36,inactive
RNF213 (ring finger protein 213),SID315458539,0.48,inactive
RNF213 (ring finger protein 213),SID315458539,1.25,inactive
RNF213 (ring finger protein 213),SID315458539,1.21,inactive
RNF213 (ring finger protein 213),SID315458566,-1.43,inactive
RNF213 (ring finger protein 213),SID315458566,-1.11,inactive
RNF213 (ring finger protein 213),SID315458566,-1.48,inactive
RNF213 (ring finger protein 213),SID315458566,0.05,inactive
OR2H2 (olfactory receptor family 2 subfamily H member 2),SID315452351,0.2,inactive
OR2H2 (olfactory receptor family 2 subfamily H member 2),SID315452351,0.36,inactive
OR2H2 (olfactory receptor family 2 subfamily H member 2),SID315452351,1.17,inactive
OR2H2 (olfactory receptor family 2 subfamily H member 2),SID315452351,0.86,inactive
LOC652859 (retired record),SID315465131,-0.01,inactive
LOC652859 (retired record),SID315465131,0.95,inactive
LOC652859 (retired record),SID315465131,0.84,inactive
LOC652859 (retired record),SID315465131,0.93,inactive
RHOC (ras homolog family member C),SID315447393,-0.18,inactive
RHOC (ras homolog family member C),SID315447393,-0.03,inactive
RHOC (ras homolog family member C),SID315447393,-0.02,inactive
RHOC (ras homolog family member C),SID315447393,0.91,inactive
